28 molecules from PubChem BioAssay AID330 (DTP/NCI, 2004) can be followed below.

The list does not hold the whole screen: it is rich in T/C values a quarter to a half above the control, in often repeated tests (any T/C) and in doses without a T/C. Other doses and runs of a compound stand elsewhere. T/C gives the treated animals as a percentage of the vehicle group. Some entries give survivors of the animals treated and no T/C: the source holds a T/C of zero for them, seemingly a mark for toxic or unscored doses. Some doses without a T/C left all or most animals alive at the check, yet need not have been tolerated: survival well below the control is almost never listed, so the zero probably covers shortened survival too. Counts of survivors are from the toxicity check (mostly the fifth day) where no day follows; animals may have died later. Schedule codes are those of the source, taken here to give the interval after Q, in days (D) or hours (H), and the number of doses after X. Some doses were run more than once; their values stand side by side, smallest first. Where survival is the endpoint, this PubChem deposit counts one and a half times the control or more as active, and values a quarter to a half above the control carry no call in these data; other NCI protocols may use other cut-offs. Some T/C values carry the count of animals alive at the toxicity check (mostly the fifth day); without a count, all were alive then.

This assay concerns P388 leukemia ip, CD2F1 mice, survival T/C. As to the kind of experiment: NCI In Vivo Anticancer Drug Screen. Data for tumor model P388 Leukemia (intraperitoneal) in CD2F1 (CDF1) mice. As to conditions: T/C endpoint: median survival time, higher T/C = longer survival.
[1] abbreviates: dose: 100.0 mg/kg/injection, schedule: Q01DX009 (ip), vehicle: saline with Tween-80.
Where [2] appears, read: dose: 3.12 mg/kg/injection, schedule: Q01DX009 (ip), vehicle: Klucel (hydroxypropylcellulose) (HPC).
[3] abbreviates: dose: 12.5 mg/kg/injection, schedule: Q01DX009 (ip), vehicle: Klucel (hydroxypropylcellulose) (HPC).
[4] abbreviates: dose: 25.0 mg/kg/injection, schedule: Q01DX009 (ip), vehicle: Klucel (hydroxypropylcellulose) (HPC).
The mark [5] stands for this setting: dose: 50.0 mg/kg/injection, schedule: Q01DX009 (ip), vehicle: Klucel (hydroxypropylcellulose) (HPC).
Setting [6] is: dose: 200.0 mg/kg/injection, schedule: Q01DX009 (ip), vehicle: Klucel (hydroxypropylcellulose) (HPC).
[7] abbreviates: dose: 100.0 mg/kg/injection, schedule: Q01DX009 (ip), vehicle: saline.
[8] abbreviates: dose: 200.0 mg/kg/injection, schedule: Q01DX009 (ip), vehicle: saline.
[9] abbreviates: dose: 100.0 mg/kg/injection, schedule: Q04DX003 (ip), vehicle: saline with Tween-80.
Setting [10] is: dose: 50.0 mg/kg/injection, schedule: Q01DX009 (ip), vehicle: saline.
The mark [11] stands for this setting: dose: 100.0 mg/kg/injection, schedule: Q01DX009 (ip), vehicle: Klucel (hydroxypropylcellulose) (HPC).
The mark [12] stands for this setting: dose: 200.0 mg/kg/injection, schedule: Q01DX009 (ip), vehicle: saline with Tween-80.
Where [13] appears, read: dose: 100.0 mg/kg/injection, schedule: Q01DX005 (ip), vehicle: saline with Tween-80.
The mark [14] stands for this setting: dose: 200.0 mg/kg/injection, schedule: Q01DX005 (ip), vehicle: saline with Tween-80.
Where [15] appears, read: dose: 200.0 mg/kg/injection, schedule: Q04DX003 (ip), vehicle: saline with Tween-80.
[16] abbreviates: dose: 400.0 mg/kg/injection, schedule: Q04DX003 (ip), vehicle: saline with Tween-80.
The mark [17] stands for this setting: dose: 75.5 mg/kg/injection, schedule: Q01DX009 (ip), vehicle: saline with Tween-80.
Setting [18] is: dose: 100.0 mg/kg/injection, schedule: Q04DX003 (ip), vehicle: Klucel (hydroxypropylcellulose) (HPC).

With `COc1cc2c[n+](C)c3c4cc(OC)c(OC)cc4c(OC)cc3c2cc1OC`, the T/C (dose: 25.0 mg/kg/injection, schedule: Q01DX005 (ip), vehicle: Klucel (hydroxypropylcellulose) (HPC)) is 125 % of control; the T/C (dose: 50.0 mg/kg/injection, schedule: Q01DX005 (ip), vehicle: Klucel (hydroxypropylcellulose) (HPC)) was 132 % of control; the T/C (dose: 50.0 mg/kg/injection, schedule: Q01DX005 (ip), vehicle: saline) was 125 % of control [5 of 6 alive]; the T/C (dose: 100.0 mg/kg/injection, schedule: Q01DX005 (ip), vehicle: Klucel (hydroxypropylcellulose) (HPC)) is 127 % of control [5 of 6 alive]. The survivor count (dose: 200.0 mg/kg/injection, schedule: Q01DX005 (ip), vehicle: Klucel (hydroxypropylcellulose) (HPC)) is 3 of 6.

On to `Cc1ccc(Cl)c(S(=O)(=O)F)c1`, for which, under setting [1], the survivor count is on record as 3 of 6.

As for `CC(=O)OCC1OC(n2cc(F)c(=O)[nH]c2=O)C(OC(C)=O)C1OC(C)=O` (stereo not given), the T/C by setting is: under setting [2], 134 % of control; (dose: 6.25 mg/kg/injection, schedule: Q01DX009 (ip), vehicle: Klucel (hydroxypropylcellulose) (HPC)) 142 % of control. Further, the survivor count runs as follows: under setting [3], 6 of 6; under setting [4], 6 of 6; under setting [5], 6 of 6; under setting [6], 6 of 6.

As for `CCCCCCCCCCCCCC[N+]1([O-])CCCC1`, the survivor count under setting [7] was 2 of 6 and the survivor count under setting [8] is recorded as 0 of 6.

Regarding `O=C1OC2=C(CCCCC2)C(N2CCCCC2)C12SCCCS2` (stereo not given), the T/C under setting [9] is 131 % of control.

For `Cc1cnc(C=O)c2cccc([N+](=O)[O-])c12`, the survivor count under setting [6] is on record as 5 of 6.

In the case of `C[N+](C)(C)Cc1c[nH]c2ccccc12`, the survivor count is, setting by setting: under setting [10], 2 of 6; under setting [7], 0 of 6; under setting [8], 1 of 6.

Turning to `CCOP(=O)(OCC)SCSC(C)C`, the survivor count was 6 of 6 (dose: 0.78 mg/kg/injection, schedule: Q01DX009 (ip), vehicle: Klucel (hydroxypropylcellulose) (HPC)); 6 of 6 (dose: 1.56 mg/kg/injection, schedule: Q01DX009 (ip), vehicle: Klucel (hydroxypropylcellulose) (HPC)); 5 of 6 under setting [2]; 0 of 6 under setting [3]; 0 of 6 under setting [4]; 0 of 6 under setting [5]. Moreover, the survivor count is given as 0 of 6 under setting [11] and 0 of 6 under setting [6].

As for `NC(=S)NNC(=O)C(Cc1ccccc1)NC(=O)OCc1ccccc1` (stereo not given), the survivor count was 3 of 6 under setting [1] and 0 of 6 under setting [12].

As for `Nc1ccc2c(NCCCCCCCCNc3c4ccccc4nc4cc(N)ccc34)c3ccccc3nc2c1`, the T/C was 141 % of control (dose: 0.32 mg/kg/injection, schedule: Q01DX009 (ip), vehicle: other); 141 % of control (dose: 0.63 mg/kg/injection, schedule: Q01DX009 (ip), vehicle: other); 149 % of control (dose: 10.0 mg/kg/injection, schedule: Q01DX009 (ip), vehicle: other).

Consider `CC(C)CC(=O)CC(c1ccccc1)C(C(=O)/C=C/c1ccccc1)C(C)C` (stereo not given), for which the survivor count under setting [13] is on record as 5 of 5 and the survivor count under setting [14] is listed as 5 of 5.

For `C[C@@]12N[C@H]3S[C@]1(C)c1ccccc1N2C[C@@H]3C#N`, the survivor count by setting is: under setting [13], 5 of 5; under setting [14], 5 of 5.

In the case of `O=C1CSC(c2ccc(O)c(O)c2)N1c1nncs1` (stereo not given), the survivor count (dose: 100.0 mg/kg/injection, schedule: Q04DX002 (ip), vehicle: saline with Tween-80) is 6 of 6; the survivor count (dose: 200.0 mg/kg/injection, schedule: Q04DX002 (ip), vehicle: saline with Tween-80) is given as 6 of 6; the survivor count (dose: 400.0 mg/kg/injection, schedule: Q04DX002 (ip), vehicle: saline with Tween-80) is 6 of 6.

For the molecule `CC(C)CCNc1ncnc2c1cnn2C`, the survivor count is, setting by setting: (dose: 100.0 mg/kg/injection, schedule: Q04DX003 (ip), vehicle: saline) 4 of 6; under setting [15], 0 of 6; under setting [16], 0 of 6.

For `COc1cc2c3c(cccc3c1)C(=O)N(CCN(C)C)C2=O`, the T/C is 100, 116, 124, 132 % of control (dose: 18.9 mg/kg/injection, schedule: Q01DX009 (ip), vehicle: saline with Tween-80); 111, 119 [5 of 6 alive], 132, 139 % of control (dose: 37.8 mg/kg/injection, schedule: Q01DX009 (ip), vehicle: saline with Tween-80); 96 [5 of 6 alive], 119 [4 of 6 alive], 121 % of control under setting [17]. Also, the survivor count under setting [17] is listed as 6 of 6; the survivor count (dose: 151.0 mg/kg/injection, schedule: Q01DX009 (ip), vehicle: saline with Tween-80) is 3 of 6 and 4 of 6.

Turning to `O=S1CCS(=O)C1c1ccccc1` (stereo not given), the survivor count (dose: 200.0 mg/kg/injection, schedule: Q01DX005 (ip), vehicle: other) was 1 of 6.

Regarding `O=S(=O)(ON=C1C=CC(=NOS(=O)(=O)c2ccccc2)C=C1)c1ccccc1`, the survivor count is, setting by setting: (dose: 25.0 mg/kg/injection, schedule: Q04DX003 (ip), vehicle: Klucel (hydroxypropylcellulose) (HPC)) 6 of 6; under setting [18], 6 of 6; (dose: 200.0 mg/kg/injection, schedule: Q04DX003 (ip), vehicle: Klucel (hydroxypropylcellulose) (HPC)) 6 of 6. For the same molecule, under setting [18], the T/C was 125 % of control.

Turning to `CN(C)C/C=C(/c1ccc(Br)cc1)c1cccnc1`, the survivor count runs as follows: under setting [10], 6 of 6; under setting [7], 6 of 6; under setting [8], 0 of 6.

Take `COc1cc(NCCCCC(C)N)c2nccc(C)c2c1` (stereo not given): under setting [10], the survivor count is 6 of 6.

Regarding `CNc1c([N+](=O)[O-])cc2[nH]cnc2c1[N+](=O)[O-]`, the survivor count by setting is: under setting [9], 0 of 6; under setting [15], 0 of 6; under setting [16], 0 of 6.

Regarding `O=C1CCCCC1C(=O)C(F)(F)F` (stereo not given), the survivor count (dose: 200.0 mg/kg/injection, schedule: Q01DX009 (ip), vehicle: saline + Tween-80 + alcohol) is given as 3 of 6.

In the case of `N=C(N)SCCC(=O)NCNC(=O)CCSC(=N)N`, for the setting “dose: 200.0 mg/kg/injection, schedule: Q01DX005 (ip), vehicle: suspension in saline”, the survivor count is listed as 0 of 6.

For the molecule `[Tl][S][Tl]`, the survivor count runs as follows: under setting [4], 6 of 6; under setting [5], 6 of 6; under setting [11], 5 of 6; under setting [6], 6 of 6.

Take `OCCCN1CCCCC1CO` (stereo not given): the T/C is, setting by setting: under setting [1], 130 % of control; (dose: 400.0 mg/kg/injection, schedule: Q01DX009 (ip), vehicle: saline with Tween-80) 146 % of control.

With `Cc1cccc(O)c1C(=O)OC(C)c1cccc2nc3c(C(=O)O)cccc3nc12` (stereo not given), where the note is “dose: 25.0 mg/kg/injection, schedule: Q01DX005 (ip), vehicle: DMSO”, the T/C was 130 % of control. Also, the survivor count (dose: 50.0 mg/kg/injection, schedule: Q01DX005 (ip), vehicle: DMSO) is 0 of 6.

As for `CN(C#N)CCc1ccccc1`, the survivor count under setting [12] is 3 of 6.

Consider `O=c1c(O)cccn1C1OC(CO)C(O)C1O` (stereo not given), for which the survivor count (dose: 400.0 mg/kg/injection, schedule: Q01DX005 (ip), vehicle: saline) was 6 of 6.

In the case of `CCn1c(=O)c2ncnnc2n(CC)c1=O`, the survivor count is, setting by setting: under setting [4], 4 of 6; under setting [5], 1 of 6; under setting [11], 2 of 6; under setting [6], 0 of 6.
